Results reported in paper PMC12137173.
These are yes or no findings as the source states them, for the method shown. Binding seen in cells or lysates may run through a third protein. These calls come from enrichment with a bait or labelling near it, and not all partners need be listed.

Protein sequences, listed by entry. Tags and fused reporters are not part of them.
UniProt P25694: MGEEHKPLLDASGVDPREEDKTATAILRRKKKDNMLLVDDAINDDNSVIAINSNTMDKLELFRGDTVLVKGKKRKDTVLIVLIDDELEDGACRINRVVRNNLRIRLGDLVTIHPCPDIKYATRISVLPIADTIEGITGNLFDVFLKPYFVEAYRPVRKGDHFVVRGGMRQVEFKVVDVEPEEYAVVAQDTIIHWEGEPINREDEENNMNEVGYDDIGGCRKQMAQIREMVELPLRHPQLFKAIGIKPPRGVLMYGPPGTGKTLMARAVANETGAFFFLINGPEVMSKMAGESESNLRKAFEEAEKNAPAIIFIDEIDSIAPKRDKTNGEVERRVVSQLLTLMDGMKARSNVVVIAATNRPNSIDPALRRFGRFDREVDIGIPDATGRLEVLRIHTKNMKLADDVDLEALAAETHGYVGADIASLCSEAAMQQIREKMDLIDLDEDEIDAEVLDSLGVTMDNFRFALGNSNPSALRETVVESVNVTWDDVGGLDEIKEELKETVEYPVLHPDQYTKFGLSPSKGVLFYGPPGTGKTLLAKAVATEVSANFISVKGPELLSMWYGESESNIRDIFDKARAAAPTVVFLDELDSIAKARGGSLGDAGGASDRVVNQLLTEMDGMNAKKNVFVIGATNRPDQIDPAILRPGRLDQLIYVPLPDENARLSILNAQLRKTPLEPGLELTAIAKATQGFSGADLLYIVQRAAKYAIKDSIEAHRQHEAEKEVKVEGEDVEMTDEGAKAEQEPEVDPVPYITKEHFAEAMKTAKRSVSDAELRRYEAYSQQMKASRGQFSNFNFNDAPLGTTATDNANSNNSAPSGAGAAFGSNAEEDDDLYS
UniProt P0CX25: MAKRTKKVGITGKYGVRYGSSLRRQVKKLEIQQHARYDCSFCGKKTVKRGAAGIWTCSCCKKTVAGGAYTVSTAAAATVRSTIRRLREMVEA

Molecular target: Cdc48 (WT), C-terminally tagged with FLAG and HIS-tag (S. cerevisiae) (UniProt P25694)
Assay: affinity purification with mass spectrometry; FLAG-tagged Cdc48 (WT or C115S) co-immunoprecipitated on magnetic beads from yeast lysate (Tris HCl pH 7.5 with protease inhibitors, Triton; diluted 1:1 with 50 mM Tris-HCl pH 7.5, 200 mM NaAc, 10 % glycerol), overnight at 4 °C; cells grown 24 h and 48 h; LC-MS/MS with label-free quantification; PTM search of the same data by PROMISE

In the case of “Rpl43A (ubiquitinated) (from UniProt P0CX25 1-92)”, the binding is reported as “binds”.
